Measurements reported in PubChem BioAssay AID1259308 (NCATS, 2017)
Test: 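Knock-downs that increase output of a recombinant reporter protein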 (primary screen). Cell system: human HEK293 embryonic kidney cells stably expressing firefly luciferase (HEK-CMV-Luc2-Hygro). Reagents: single siRNA against human genes, 0.8 pmol siRNA per well. Time to read-out: 72 h. Read-out: 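Reporter luminescence and viable-cell signal on separate replicate plates, given as percent of non-targeting control and median/MAD z-scores, plus per-cell luciferase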. Scale: total luciferase, z-score: higher = more reporter protein produced. Active means: 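Active when the median/MAD z-score for overall luciferase is greater than 3; a gene was taken forward for validation with new siRNAs if at least two of its three siRNAs passed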. Meaning of the calls: active = raised luciferase; inactive = no rise.
In all, the deposit lists about 59,000 reagents; shown is an unselected part. About 1,510 of them (2.6%) were called active. 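Calls use total luciferase alone and ignore viability, so some active siRNAs may act by altering cell number.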 Unmarked entries are inactive. Not all columns of the deposit are shown.

MATK [SID160771597] | total luciferase, z-score = -0.707
MATK [SID160771694] | total luciferase, z-score = -1.44
MATK [SID160771778] | total luciferase, z-score = -1.47
SLC25A18 [SID160731995] | total luciferase, z-score = -1.42
SLC25A18 [SID160751367] | total luciferase, z-score = 5.89 (active)
SLC25A18 [SID160751368] | total luciferase, z-score = 0.199
SUSD5 [SID160737488] | total luciferase, z-score = -0.458
SUSD5 [SID160737490] | total luciferase, z-score = -0.789
SUSD5 [SID160737491] | total luciferase, z-score = 1.71
CZ1P-ASNS [SID160767972] | total luciferase, z-score = 0.339
CZ1P-ASNS [SID160767973] | total luciferase, z-score = -0.701
CZ1P-ASNS [SID160767974] | total luciferase, z-score = 2.51
C6orf132 [SID160734019] | total luciferase, z-score = -0.477
C6orf132 [SID160734021] | total luciferase, z-score = -0.0925
C6orf132 [SID160734022] | total luciferase, z-score = 2.88
C6orf132 [SID160766188] | total luciferase, z-score = -0.0881
C6orf132 [SID160766189] | total luciferase, z-score = -0.507
C6orf132 [SID160766190] | total luciferase, z-score = -1.75

4 entries from above in another layout.
{"target gene":"SUSD5","PubChem SID":"SID160737491","total luciferase, z-score":1.71}
{"target gene":"CZ1P-ASNS","PubChem SID":"SID160767972","total luciferase, z-score":0.339}
{"target gene":"CZ1P-ASNS","PubChem SID":"SID160767973","total luciferase, z-score":-0.701}
{"target gene":"CZ1P-ASNS","PubChem SID":"SID160767974","total luciferase, z-score":2.51}

Further reagents:
MIEF1 [SID160741746] | total luciferase, z-score = -0.713
MIEF1 [SID160741747] | total luciferase, z-score = -1.73
MIEF1 [SID160741748] | total luciferase, z-score = -1.56
FBXW8 [SID160737850] | total luciferase, z-score = 0.657
FBXW8 [SID160737851] | total luciferase, z-score = -0.413
FBXW8 [SID160737852] | total luciferase, z-score = 0.446
CASD1 [SID160748131] | total luciferase, z-score = 3.22 (active)
CASD1 [SID160748132] | total luciferase, z-score = -0.229
CASD1 [SID160748133] | total luciferase, z-score = -0.349
CELA2B [SID160739905] | total luciferase, z-score = -0.0327
CELA2B [SID160739906] | total luciferase, z-score = -2.18
CELA2B [SID160739908] | total luciferase, z-score = 0.908
TRIM41 [SID160753847] | total luciferase, z-score = -0.0905
TRIM41 [SID160753848] | total luciferase, z-score = 0.646
TRIM41 [SID160753849] | total luciferase, z-score = 0.857
BTN1A1 [SID160729307] | total luciferase, z-score = -0.19
BTN1A1 [SID160729318] | total luciferase, z-score = -1.42
BTN1A1 [SID160729329] | total luciferase, z-score = 0.355
ADH1B [SID160714429] | total luciferase, z-score = 0.936
ADH1B [SID160714440] | total luciferase, z-score = -0.787
ADH1B [SID160714451] | total luciferase, z-score = -0.131
MRPL52 [SID160732387] | total luciferase, z-score = 2.56
MRPL52 [SID160756002] | total luciferase, z-score = 1.78
MRPL52 [SID160756003] | total luciferase, z-score = -0.63
